{"source": "PubChem BioAssay AID1259405 | NCATS – 2018", "assay": "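Knock-downs that lift recombinant protein yield in hamster ovary cells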 (primary screen)", "system": "Chinese hamster CHO-K1 ovary cells with stable secreted eGFP expression", "knock-down reagent": "single siRNA against mouse genes, 0.8 pmol siRNA per well (2 µl of 400 nM stock)", "timing": "3 days", "measured": "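Per-well intracellular GFP measured by laser scanning cytometry, plus viability from ATP luminescence, each relative to plate median of non-targeting control wells, in %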", "reading the numbers": "GFP, % of control: higher = more GFP per well, higher productivity; viability (ATP), % of control: higher = more viable cells (more ATP)", "hit rule": "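Called active when intracellular GFP, relative to negative control, is at or above 120%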", "note": "In all, the deposit lists about 50,000 reagents; this is a random part of them. About 4,000 of all reagents (8%) count as active. 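Mouse siRNA library applied to hamster cells; one well for each siRNA.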 A number with no mark means an inactive call. The numbers tell different reagents against one gene apart."}
{"gene": "Stim2", "siRNA no.": 1, "GFP, % of control": 67.4, "viability (ATP), % of control": 72.2}
{"gene": "Stim2", "siRNA no.": 2, "GFP, % of control": 65.2, "viability (ATP), % of control": 49.5}
{"gene": "Stim2", "siRNA no.": 3, "GFP, % of control": 65, "viability (ATP), % of control": 65.1}
{"gene": "Atf5", "siRNA no.": 1, "GFP, % of control": 66.1, "viability (ATP), % of control": 67.4}
{"gene": "Atf5", "siRNA no.": 2, "GFP, % of control": 97, "viability (ATP), % of control": 74.8}
{"gene": "Dnaaf2", "siRNA no.": 1, "GFP, % of control": 74.6, "viability (ATP), % of control": 82.7}
{"gene": "Dnaaf2", "siRNA no.": 2, "GFP, % of control": 82, "viability (ATP), % of control": 95.3}
{"gene": "Dnaaf2", "siRNA no.": 3, "GFP, % of control": 57.8, "viability (ATP), % of control": 49.9}
{"gene": "Fkbp6", "siRNA no.": 1, "GFP, % of control": 88.6, "viability (ATP), % of control": 110}
{"gene": "Fkbp6", "siRNA no.": 2, "GFP, % of control": 86, "viability (ATP), % of control": 79.4}
{"gene": "Fkbp6", "siRNA no.": 3, "GFP, % of control": 55.1, "viability (ATP), % of control": 61}
{"gene": "Gps2", "siRNA no.": 1, "GFP, % of control": 69.6, "viability (ATP), % of control": 61.9}
{"gene": "Gps2", "siRNA no.": 2, "GFP, % of control": 102, "viability (ATP), % of control": 85.1}
{"gene": "Gps2", "siRNA no.": 3, "GFP, % of control": 80.3, "viability (ATP), % of control": 59.8}
{"gene": "Csnk1d", "siRNA no.": 1, "GFP, % of control": 94.4, "viability (ATP), % of control": 68}
{"gene": "Csnk1d", "siRNA no.": 2, "GFP, % of control": 88.6, "viability (ATP), % of control": 72.5}
{"gene": "Csnk1d", "siRNA no.": 3, "GFP, % of control": 67.9, "viability (ATP), % of control": 72.2}

A run of entries taken from the entries so far, as a working copy:
{"gene": "Dnaaf2", "siRNA no.": 1, "GFP, % of control": 74.6, "viability (ATP), % of control": 82.7}
{"gene": "Dnaaf2", "siRNA no.": 2, "GFP, % of control": 82, "viability (ATP), % of control": 95.3}
{"gene": "Dnaaf2", "siRNA no.": 3, "GFP, % of control": 57.8, "viability (ATP), % of control": 49.9}
{"gene": "Fkbp6", "siRNA no.": 1, "GFP, % of control": 88.6, "viability (ATP), % of control": 110}

The list goes on:
{"gene": "Tor1a", "siRNA no.": 1, "GFP, % of control": 86.4, "viability (ATP), % of control": 97.4}
{"gene": "Tor1a", "siRNA no.": 2, "GFP, % of control": 67.4, "viability (ATP), % of control": 61.1}
{"gene": "Cpn1", "siRNA no.": 1, "GFP, % of control": 82.7, "viability (ATP), % of control": 82.3}
{"gene": "Cpn1", "siRNA no.": 2, "GFP, % of control": 67.3, "viability (ATP), % of control": 78.4}
{"gene": "Cpn1", "siRNA no.": 3, "GFP, % of control": 95.2, "viability (ATP), % of control": 66.3}
{"gene": "Or8u9", "siRNA no.": 1, "GFP, % of control": 90.2, "viability (ATP), % of control": 55.2}
{"gene": "Or8u9", "siRNA no.": 2, "GFP, % of control": "121 (active)", "viability (ATP), % of control": 95.3}
{"gene": "Or8u9", "siRNA no.": 3, "GFP, % of control": 82.5, "viability (ATP), % of control": 61.9}
{"gene": "Kcnk2", "siRNA no.": 1, "GFP, % of control": 117, "viability (ATP), % of control": 107}
{"gene": "Kcnk2", "siRNA no.": 2, "GFP, % of control": 67.2, "viability (ATP), % of control": 80.3}
{"gene": "Kcnk2", "siRNA no.": 3, "GFP, % of control": 94.8, "viability (ATP), % of control": 63.8}
{"gene": "Kdm5b", "siRNA no.": 1, "GFP, % of control": 58.3, "viability (ATP), % of control": 88.4}
{"gene": "Kdm5b", "siRNA no.": 2, "GFP, % of control": 55.9, "viability (ATP), % of control": 61.2}
{"gene": "Kdm5b", "siRNA no.": 3, "GFP, % of control": 80.8, "viability (ATP), % of control": 98.3}
{"gene": "Zfp36l1", "siRNA no.": 1, "GFP, % of control": 78.8, "viability (ATP), % of control": 79.8}
{"gene": "Zfp36l1", "siRNA no.": 2, "GFP, % of control": 85.4, "viability (ATP), % of control": 87.5}
{"gene": "Trps1", "siRNA no.": 1, "GFP, % of control": 46.6, "viability (ATP), % of control": 51.4}
{"gene": "Trps1", "siRNA no.": 2, "GFP, % of control": 119, "viability (ATP), % of control": 74.4}
{"gene": "Trps1", "siRNA no.": 3, "GFP, % of control": 89, "viability (ATP), % of control": 75.5}
{"gene": "Inmt", "siRNA no.": 1, "GFP, % of control": 63.6, "viability (ATP), % of control": 94.7}
{"gene": "Inmt", "siRNA no.": 2, "GFP, % of control": 80.2, "viability (ATP), % of control": 83.1}
{"gene": "Inmt", "siRNA no.": 3, "GFP, % of control": 91.4, "viability (ATP), % of control": 85.4}
{"gene": "Gzma", "siRNA no.": 1, "GFP, % of control": "137 (active)", "viability (ATP), % of control": 101}
{"gene": "Gzma", "siRNA no.": 2, "GFP, % of control": 62.5, "viability (ATP), % of control": 31.7}
{"gene": "Gzma", "siRNA no.": 3, "GFP, % of control": 65.9, "viability (ATP), % of control": 57.7}
